# Source: PubChem BioAssay AID2685 (National Center for Advancing Translational Sciences (NCATS), 2010)
# The list shows a part of the results. Further columns of the screen follow, without active or inactive calls. Most of these compounds were active or inconclusive in the main read-out, so they are no random draw. The note in brackets gives the kind of curve behind each potency; many fits are weak.
# Assay: qHTS Assay for Lipid Storage Modulators in Drosophila S3 Cells;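 for cell number change: cells counted by Cell Tracker Red CMTPX staining in the red channel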
# Settings: BODIPY lipid droplet fluorescence, 18-24 h; for cell number change: measured here: cell count max response, cells fed with added oleic acid
# Method in brief: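 Drosophila S3 cells loaded with oleic acid (400 uM, as added) and compounds at several concentrations; lipid droplets imaged by 488-nm laser-scanning cytometry, 500–530 nm intensity and object ratio to cell channel. Percent activity normalized to 20 uM Triacsin C.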
# [1] = measured here: lipid fluorescence (Fed channel) AC50, cells fed with added oleic acid
# [2] = measured here: cell number channel AC50, cells fed with added oleic acid
compound,measurement,setting,value
CCOC(=O)C1CCN(C(=O)CN(c2cc(OC)ccc2OC)S(=O)(=O)c2ccccc2)CC1,cell number change,,-14.7%
C/C(=N\NC(=O)c1ccoc1C)c1ccc(Cl)s1,cell number change,,-29.7%
same,AC50,[1],"4.11 µM [rising, full curve]"
CCN1/C(=C/c2ccc3cc(C)ccc3[n+]2CC)Sc2ccccc21,cell number change,,-60.6%
same,AC50,[2],"2.06 µM [falling, partial curve]"
same,AC50,[1],"1.16 µM [falling, full curve]"
CC(C)(C)OC(=O)CNC(=O)c1[nH]cnc1C(=O)NCC(=O)OCc1ccccc1,cell number change,,25.4%
same,AC50,[1],"2.06 µM [falling, partial curve, poor fit]"
CCCC1(c2ccccc2)NC(=O)N(CC(=O)NCC2COc3ccccc3O2)C1=O (centres undefined),cell number change,,14.4%
same,AC50,[2],"1.3 µM [falling, full curve, poor fit]"
same,AC50,[1],"2.06 µM [falling, partial curve]"
Cc1ccc(Cl)cc1NC(=O)Cn1cc2c(n1)CCCC2,cell number change,,-11.9%
same,AC50,[1],"11.6 µM [rising, partial curve]"
c1csc(Cn2nnnc2CN2CCN(c3nc4ccccc4s3)CC2)c1,cell number change,,-21.4%
same,AC50,[1],"16.4 µM [rising, partial curve, poor fit]"
Cc1ccc(CNC(=O)c2ccc(NS(=O)(=O)c3c(C)noc3C)cc2)cc1,cell number change,,-5.34%
same,AC50,[2],"6.51 µM [falling, single point]"
COCC(=O)OCC(=O)Nc1cc(C)c(C)cc1[N+](=O)[O-],cell number change,,-50%
same,AC50,[2],"29.1 µM [falling, single point]"
same,AC50,[1],"6.51 µM [falling, single point]"
N=c1c(C(=O)NCc2ccco2)cc2c(=O)n3ccccc3nc2n1C1CCCC1,AC50,[1],"1.84 µM [falling, full curve]"
CC(=O)c1cc(NC(=O)c2ccc(C)cc2)c(=O)oc1/C=C/N(C)C,AC50,[1],"0.58 µM [falling, single point]"
O=C(NCCCN1CCOCC1)c1cc(-c2ccc(F)cc2)no1,cell number change,,-23.7%
same,AC50,[1],"1.3 µM [falling, partial curve]"
CCC1=NN(C(=O)Cc2ccc(OC)cc2)C(O)(C(F)(F)F)C1 (centres undefined),cell number change,,121%
same,AC50,[2],"29.1 µM [rising, partial curve, poor fit]"
Nc1ccc(N2C(=O)c3ccccc3C2=O)c(Cl)c1,cell number change,,36.4%
same,AC50,[2],"14.6 µM [rising, partial curve, poor fit]"
same,AC50,[1],"2.91 µM [rising, partial curve, poor fit]"
CC(C)COC(=O)N1C[C@H](O)C[C@H]1C(=O)Nc1ccc(Cl)cc1,cell number change,,6.02%
same,AC50,[1],"2.91 µM [rising, single point]"
CCOC(=O)c1c(C)[nH]c(C(=O)OCC(=O)Nc2cc(C)ccc2OC)c1C,cell number change,,-2.23%
same,AC50,[1],"0.326 µM [rising, full curve]"
CCCNC(=O)c1onc(CSc2ccccc2)c1C(=O)NCCC,cell number change,,12.7%
same,AC50,[1],"0.731 µM [falling, partial curve]"
COc1ccc(CNc2ncc(-c3ccccc3)n2C)cc1,cell number change,,12.4%
COc1ccc(CNC(=S)N2CCN(Cc3ccccc3)CC2)cc1,cell number change,,17.9%
same,AC50,[1],"3.66 µM [rising, single point]"
CN(CC(=O)NCc1ccc(F)cc1)S(=O)(=O)c1ccc(Br)s1,cell number change,,42.1%
same,AC50,[2],"4.61 µM [rising, full curve, poor fit]"
S=c1[nH]nc(-c2ccccc2Br)n1Cc1ccccc1,cell number change,,5.77%
same,AC50,[1],"13 µM [falling, partial curve]"
COc1cccc(C2NC(=O)NC(O)(C(F)(F)F)C2C(=O)c2cccnc2)c1OC (centres undefined),cell number change,,-12.4%
same,AC50,[1],"0.411 µM [falling, full curve, poor fit]"
CC(C)CC(=O)Nc1ccc(C(=O)CN2C(=O)NC3(CCOc4ccccc43)C2=O)cc1 (centres undefined),AC50,[2],"0.58 µM [rising, single point]"
O=C1CC(c2ccc(S(=O)(=O)N3CCN(c4ccccc4)CC3)cc2)CN1 (centres undefined),AC50,[2],"0.82 µM [rising, full curve]"
O=C(Nc1ccc2oc(-c3ccccc3)nc2c1)c1ccco1,cell number change,,23.9%
O=C(CCN1CCC(c2cccs2)=N1)c1cccs1,cell number change,,-36.5%
same,AC50,[2],"4.11 µM [falling, full curve]"
same,AC50,[1],"6.51 µM [falling, single point]"
Cc1cccc(OCC(=O)NC(=S)NNC(=O)c2ccncc2)c1,cell number change,,-30.8%
same,AC50,[2],"10.3 µM [falling, partial curve]"
same,AC50,[1],"11.6 µM [falling, single point]"
COc1ccc(NC(=O)c2cccc(N3C(=O)C4C5CCC(C5)C4C3=O)c2)cc1 (centres undefined),cell number change,,-5.87%
COc1ccc(N2CCN(CCCNC(=O)c3cc4sccc4n3C)CC2)cc1,cell number change,,18.5%
same,AC50,[1],"7.31 µM [rising, partial curve, poor fit]"
CC(CC(=O)Nc1ccc(F)c([N+](=O)[O-])c1)c1ccccc1 (centres undefined),cell number change,,33.3%
same,AC50,[2],"18.4 µM [rising, single point]"
COc1ccc(N(C(=O)C(C)C)S(=O)(=O)c2ccc3ccccc3c2)cc1,cell number change,,7.3%
same,AC50,[2],"4.11 µM [rising, partial curve, poor fit]"
same,AC50,[1],"29.1 µM [falling, single point]"
CC1CCCCC1NC(=O)C1CCCN(S(=O)(=O)c2ccc(-n3cnnn3)cc2)C1 (centres undefined),cell number change,,8.75%
CCN1C(=O)[C@H]2[C@@H](c3ccc(-c4ccc(Cl)c(Cl)c4)c(OC)c3)N[C@@](Cc3ccccc3)(C(=O)OC)[C@H]2C1=O,cell number change,,1.19%
same,AC50,[1],"2.59 µM [falling, partial curve]"
CN(C)c1ccc(/C=N/NC(=O)c2nnn(-c3nonc3N)c2COc2ccc(F)cc2)cc1,cell number change,,-31.5%
same,AC50,[2],"29.1 µM [falling, single point]"
same,AC50,[1],"29.1 µM [falling, single point]"
O=C(c1ccc2c(c1)OCO2)C1CCCN(Cc2c(F)ccc(F)c2F)C1 (centres undefined),cell number change,,3.3%
CCCCCCCNC(=O)C1(CC2CC(c3cccc(Br)c3)=NO2)CCN(C(=O)Cc2ccc(F)cc2)CC1 (centres undefined),cell number change,,4.16%
same,AC50,[2],"0.461 µM [falling, full curve]"
same,AC50,[1],"0.517 µM [falling, full curve]"
COc1ccccc1C(=O)O/N=C(\c1ccccc1)c1ccncc1,cell number change,,34%
same,AC50,[2],"29.1 µM [rising, single point]"
COc1ccc(S(=O)(=O)N2CCCCC2)cc1NC(=O)CCCOc1ccc(C)cc1,cell number change,,-6.29%
same,AC50,[1],"0.0731 µM [falling, partial curve, poor fit]"
COc1ccc(CN(Cc2cccn2C)S(=O)(=O)c2ccc(C)cc2)cc1,AC50,[1],"0.326 µM [rising, full curve, poor fit]"
CCC(CO)Nc1ccc(-c2nn(C)c(=O)c3ccccc23)cc1[N+](=O)[O-] (centres undefined),cell number change,,-35.1%
same,AC50,[2],"13 µM [falling, partial curve]"
same,AC50,[1],"5.17 µM [falling, partial curve]"
O=C(Nc1ccc2c(c1)C(=O)OC2)c1ccc(Cl)cc1Cl,cell number change,,62.6%
same,AC50,[2],"20.6 µM [rising, single point]"
same,AC50,[1],"23.1 µM [rising, partial curve]"
Cc1ccc(Cl)cc1NC(=O)c1ccc(NC(=O)CCC(=O)O)cc1,cell number change,,-62%
same,AC50,[2],"29.1 µM [falling, single point]"
same,AC50,[1],"29.1 µM [falling, single point]"
O=C1NC(=S)N/C1=C/c1ccc2c(c1)OCO2,cell number change,,-18%
same,AC50,[1],"29.1 µM [falling, single point]"
c1ccc(Cn2c(CNc3nc4ccccc4n3CCN3CCOCC3)nc3ccccc32)cc1,cell number change,,0.247%
same,AC50,[2],"6.51 µM [falling, single point]"
CC(C)CN(C(=O)COC(=O)c1c(Cl)ccc(Cl)c1Cl)C1CCS(=O)(=O)C1 (centres undefined),cell number change,,-29.8%
same,AC50,[1],"4.11 µM [rising, single point]"
CC(NO)/C(=N\O)c1cccs1 (centres undefined),cell number change,,-11.4%
same,AC50,[2],"5.8 µM [falling, single point]"
same,AC50,[1],"3.26 µM [falling, full curve]"
C/C(=N\NC(=O)CNC(=O)c1ccc2c(c1)OCO2)c1ccco1,cell number change,,-10.9%
same,AC50,[1],"3.66 µM [falling, partial curve]"
CC(C)CNC(=S)N1CCN(c2nc(-c3ccc(Cl)cc3)cs2)CC1,cell number change,,8.55%
CC(=O)n1cc(Nc2ccc([N+](=O)[O-])cc2)c2ccccc21,cell number change,,14.9%
same,AC50,[2],"0.00517 µM [rising, full curve, poor fit]"
O=C(Nc1ccnn1C1CCN(C(=O)c2ccc(Cl)c(F)c2)CC1)C1CCOC1 (centres undefined),cell number change,,17.9%
Cc1ccc(C2CC(c3cccs3)=NN2C(=O)CSc2nc3ccccc3o2)cc1 (centres undefined),cell number change,,-19.6%
same,AC50,[1],"18.4 µM [falling, partial curve]"
O=C1CC2(CCN(C(=O)C3CC(=O)N(c4ccc(F)cc4)C3)CC2)Oc2ccccc21 (centres undefined),cell number change,,-26%
same,AC50,[1],"0.13 µM [falling, full curve, poor fit]"
COc1ccc(CN=C2NC(=O)CC(C(=O)Nc3cc(C)cc(C)c3)S2)cc1 (centres undefined),cell number change,,-20.1%
same,AC50,[2],"0.82 µM [falling, full curve, poor fit]"
O=C(N/N=C/c1ccccc1O)C1CCCC1,cell number change,,-15.3%
CNc1nc2ccccc2n1N,cell number change,,-7.72%
same,AC50,[1],"29.1 µM [rising, single point]"
Cc1cc(Cn2nc(C(=O)NCc3cccs3)cc2-c2ccccc2)on1,cell number change,,19%
same,AC50,[1],"6.51 µM [rising, partial curve, poor fit]"
Cn1cc(CC(=O)NCCCN2CCCC2=O)c2ccccc21,AC50,[1],"2.06 µM [rising, single point]"
Cc1nn(C)cc1S(=O)(=O)NCc1ccccc1Cl,cell number change,,-18.8%
same,AC50,[1],"6.51 µM [rising, partial curve, poor fit]"

# In another format: entries from further up
compound	measurement	setting	value
CCC(CO)Nc1ccc(-c2nn(C)c(=O)c3ccccc23)cc1[N+](=O)[O-] (centres undefined)	AC50	[2]	13 µM [falling, partial curve]
same	AC50	[1]	5.17 µM [falling, partial curve]
O=C(Nc1ccc2c(c1)C(=O)OC2)c1ccc(Cl)cc1Cl	cell number change		62.6%
same	AC50	[2]	20.6 µM [rising, single point]
same	AC50	[1]	23.1 µM [rising, partial curve]
